Data on one substance can be found in publication PMC4540712 (EJNMMI Research, 2015).

This series can be described thus: general procedure: Fmoc solid-phase peptide synthesis; Rink amide MBHA; HATU. Particulars: whole synthesis.

Regarding “Leu-Sta-His-Gly-Val-Ala-Trp-Gln-D-Phe-4-amino-1-carboxymethyl-piperidine-4-pentynoic acid”, the isolated yield was 71%.
